No constants are given. Whether binding was seen depends on the method and setting. For some of these results: In cells and extracts the contact can be indirect. Some results given as binding are weak or reduced against the parent protein; the word gives no strength.
How the values were obtained:
[1] = biological target: eIF3f (co-IP with FBXW7β, Figure S3H) (human (cDNA from HEK293T cells or endogenous in human cell lines)) (UniProt O00303); test: co-IP; eIF3f with FBXW7β (Figure S3H); constructs, bait and cells not given
[2] = biological target: Eukaryotic Initiation translation factor 3, f subunit (eIF3f) (human (endogenous in HCT-116)) (UniProt O00303); test: co-IP; endogenous proteins; lysis in 50 mM Tris-HCl pH 7.5, 150 mM NaCl, 1 mM EDTA, 1% NP-40; antibody overnight at 4 °C, protein A/G beads 4 h; immunoblot
[3] = biological target: Eukaryotic Initiation translation factor 3, f subunit (eIF3f) (human (endogenous in HCT-116)) (UniProt O00303); test: proximity ligation; HCT-116 cells fixed with 4% PFA, permeabilised with 0.5% Triton X-100, primary antibodies overnight at 4 °C, Duolink kit, confocal microscope
[4] = biological target: Eukaryotic Initiation translation factor 3, f subunit (eIF3f) (human (endogenous in HCT-116)) (UniProt O00303); test: SEC; lysates of HCT-116 cells (shNC or DOX-induced shEIF3F) on Superose 6 Increase 10/300 GL in cold PBS pH 7.4, 0.4 ml/min; fractions immunoblotted

Sequences of proteins named here, by UniProt entry; tags and fusion partners are left off. A change or cut given only in a name is not applied to a line headed by its entry. A line that says so, or that is headed by a name, gives the form on record, which may keep a tag or linker.
UniProt O00303: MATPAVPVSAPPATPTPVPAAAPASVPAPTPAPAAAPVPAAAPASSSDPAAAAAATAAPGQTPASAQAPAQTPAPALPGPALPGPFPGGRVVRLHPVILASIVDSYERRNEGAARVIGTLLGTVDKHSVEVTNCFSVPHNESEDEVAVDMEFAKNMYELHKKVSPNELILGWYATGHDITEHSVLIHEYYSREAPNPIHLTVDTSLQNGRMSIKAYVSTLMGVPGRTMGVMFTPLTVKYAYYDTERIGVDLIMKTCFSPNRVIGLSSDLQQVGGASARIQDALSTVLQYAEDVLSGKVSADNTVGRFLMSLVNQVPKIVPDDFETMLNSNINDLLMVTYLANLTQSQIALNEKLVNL
FBXW7β (Q969H0-2, form named): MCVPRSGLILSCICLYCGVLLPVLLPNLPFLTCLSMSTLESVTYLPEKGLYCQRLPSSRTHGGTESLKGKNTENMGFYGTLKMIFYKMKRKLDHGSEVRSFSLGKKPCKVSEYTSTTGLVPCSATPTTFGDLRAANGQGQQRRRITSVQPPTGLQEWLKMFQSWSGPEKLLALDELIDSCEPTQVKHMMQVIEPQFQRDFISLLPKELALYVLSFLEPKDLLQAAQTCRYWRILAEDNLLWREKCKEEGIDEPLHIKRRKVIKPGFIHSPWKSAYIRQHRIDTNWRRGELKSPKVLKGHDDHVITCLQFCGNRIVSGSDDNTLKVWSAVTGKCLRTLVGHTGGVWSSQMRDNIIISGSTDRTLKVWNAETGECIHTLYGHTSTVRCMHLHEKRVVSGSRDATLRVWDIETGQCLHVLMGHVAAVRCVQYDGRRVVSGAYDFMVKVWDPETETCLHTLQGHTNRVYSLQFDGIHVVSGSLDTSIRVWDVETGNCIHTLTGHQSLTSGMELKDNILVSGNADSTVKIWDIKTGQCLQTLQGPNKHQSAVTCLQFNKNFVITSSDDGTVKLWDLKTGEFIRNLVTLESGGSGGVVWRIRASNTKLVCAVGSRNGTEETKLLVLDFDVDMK
UniProt P01106: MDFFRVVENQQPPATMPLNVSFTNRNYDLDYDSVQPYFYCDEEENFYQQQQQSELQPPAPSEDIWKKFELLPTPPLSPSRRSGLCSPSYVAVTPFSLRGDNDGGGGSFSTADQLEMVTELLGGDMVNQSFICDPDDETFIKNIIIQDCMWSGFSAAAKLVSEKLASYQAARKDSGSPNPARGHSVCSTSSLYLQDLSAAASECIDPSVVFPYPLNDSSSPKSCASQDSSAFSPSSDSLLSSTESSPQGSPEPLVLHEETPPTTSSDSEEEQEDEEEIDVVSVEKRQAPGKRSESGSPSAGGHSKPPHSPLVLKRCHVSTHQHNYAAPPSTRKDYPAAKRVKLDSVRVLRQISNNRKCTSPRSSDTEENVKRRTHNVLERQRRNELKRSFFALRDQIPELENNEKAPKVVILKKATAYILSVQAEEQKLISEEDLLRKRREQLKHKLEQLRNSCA

Q: With “FBXW7β (co-IP with eIF3f, Figure S3H) (from UniProt Q969H0-2 1-627)” as the substance, how does the binding [1] read?
A: binds

Q: How did the binding [2] turn out when MYC (from UniProt P01106 1-454) was run?
A: binds

Q: And the binding [3]?
A: binds

Q: For FBXW7β (from UniProt Q969H0-2 1-627), which binding [4] is on record?
A: binds
